From patent US20260209332A1 (SORRISO PHARMACEUTICALS, published 2026)
Results are given in words; binding and its absence hold for the method and conditions named. Some results given as binding are weak or reduced against the parent protein; the word gives no strength.

Chains of the proteins cited; added tags and fusions are not shown. Lines headed by an entry give the natural chain unless they say otherwise; changes in a name come on top.
UniProt Q9NPF7: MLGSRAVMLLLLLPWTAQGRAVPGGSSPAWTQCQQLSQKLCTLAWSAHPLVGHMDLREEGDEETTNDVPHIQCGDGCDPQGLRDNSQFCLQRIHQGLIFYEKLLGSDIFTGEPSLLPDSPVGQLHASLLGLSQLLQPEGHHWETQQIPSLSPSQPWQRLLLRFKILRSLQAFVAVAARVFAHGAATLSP

What was measured:
interleukin-23 (IL-23) [1] = molecular target: interleukin-23 (IL-23) (UniProt Q9NPF7); experiment: IL-23/IL-23R ELISA
interleukin-23 (IL-23) [2] = molecular target: interleukin-23 (IL-23) (UniProt Q9NPF7); experiment: IL-23/IL-23R ELISA, 4 h sample in pooled human fecal supernatant against the 0 h sample, N=3; the text speaks of the dual inhibitor and its cleavage products
interleukin-23 (IL-23) [3] = molecular target: interleukin-23 (IL-23) (UniProt Q9NPF7); experiment: IL-23/IL-23 receptor interference ELISA
interleukin-23 (IL-23) [4] = molecular target: interleukin-23 (IL-23) (UniProt Q9NPF7); experiment: IL-23/IL-23R interference ELISA; blocked interaction: IL-23 with IL-23 receptor
interleukin-23 (IL-23) [5] = molecular target: interleukin-23 (IL-23) (UniProt Q9NPF7); experiment: summary of the examples (ELISA)
interleukin-23 (IL-23) [6] = molecular target: interleukin-23 (IL-23) (UniProt Q9NPF7); experiment: IL-23/IL-23R interference ELISA; blocked interaction: IL-23 with IL-23 receptor; arm liberated by trypsin
interleukin-23 (IL-23) [7] = molecular target: interleukin-23 (IL-23) (UniProt Q9NPF7); experiment: IL-23/IL-23R ELISA, 4 h sample in pooled human fecal supernatant against the 0 h sample, N=3

Measured: binding

B1: TNF-alpha/IL-23 dual inhibitor (bispecific anti-TNF-alpha/anti-IL-23 domain antibody) (bispecific antibody)
chain: DVQLVESGGGLVQPGGSLKLSCAASGFDFSSHWMYWVRQAPGKELEWLSEINTNGLITHYGDSVKGRFTVSRNNAANKMYLELTRLEPEDTALYYCARNQHGLNKGQGTQVTVSSGGGGSGGGGSKGGGGSGGGGSEVQLVESGGGQVQPGGSLSLSCESSVSIWSFKVMGWFRQVPGKQRELVATITTGGSPDYSDSVKGRFTISRDYDKRTLYLQMNSLKPEDTAVYYCAGRLWAHITSSGHDVWGQGTQVTVSS
notes: Produced and purified from yeast; also called FA1K
binds: interleukin-23 (IL-23) [1] | interleukin-23 (IL-23) [2] | interleukin-23 (IL-23) [3] | interleukin-23 (IL-23) [4]

B2: liberated anti-IL-23 monomer arm of TNF-alpha/IL-23 dual inhibitor (VHH)
VHH: EVQLVESGGGQVQPGGSLSLSCESSVSIWSFKVMGWFRQVPGKQRELVATITTGGSPDYSDSVKGRFTISRDYDKRTLYLQMNSLKPEDTAVYYCAGRLWAHITSSGHDVWGQGTQVTVSS
notes: Cleavage product; carries the remnant of the linker at its N-terminus; also called liberated-IL-23
binds: interleukin-23 (IL-23) [1] | interleukin-23 (IL-23) [5] | interleukin-23 (IL-23) [3] | interleukin-23 (IL-23) [6]

B3: IL-23 inhibitor (anti-IL-23 single domain antibody, parent monomer) (VHH)
VHH: EVQLVESGGGQVQPGGSLSLSCESSVSIWSFKVMGWFRQVPGKQRELVATITTGGSPDYSDSVKGRFTISRDYDKRTLYLQMNSLKPEDTAVYYCAGRLWAHITSSGHDVWGQGTQVTVSS
notes: Produced in yeast; also called IL-23: D1E ID-L253T
binds: interleukin-23 (IL-23) [3] | interleukin-23 (IL-23) [7] | interleukin-23 (IL-23) [4]
